Among all 220,000 compounds or so, about 2,400 (1.1%) were called active. The inconclusive results got no clear call from the source; some entries with a clear call stand among them for comparison. Calls come from the whole dose curve; as a rule, active = well fitted inhibition curve with a large enough effect; inconclusive = small, poorly fitted or top-dose-only effect, or effect the other way; inactive = no such curve, though single readings can be large or run the other way. Where the call is inconclusive, the potency comes from a doubtful curve fit.
assay: qHTS Multiplex Assay to Identify Dual Action Probes in a Cell Model of Huntington: Aggregate Formation (GFP); conditions: PC12 HttQ103-GFP aggregates, Acumen cytometry, 40 h; activity change, negative = inhibition: at 46.1 µM (top of the series) unless noted; note: nearly all actives have a fitted effect of over 60% in size
How it was run: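 Huntingtin Q103 exon 1–GFP aggregates in induced PC12 cells (100 nM tebufenozide) were quantified by cytometry from lysates, with compounds dosed in titration.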
% is set by controls: 0 for no effect and ±100 for the full control effect; potency is the fitted concentration of half-maximal effect.

Structure (SMILES) | Potency | activity change, negative = inhibition
CN(C)c1nc(=Nc2cccc(Cl)c2)ss1 | inconclusive: 3.16 µM [inhibitor, single point] | –
CCN(CCO)C(=O)C(c1ccccc1)c1ccccc1 | inconclusive: 11.2 µM [activator, partial curve] | –
Cc1ccc2nc(-c3ccc(NS(=O)(=O)c4ccc(F)c(F)c4)cc3)sc2c1 | active: 2.82 µM | –
CCN(CC)S(=O)(=O)c1ccc2c(c1)C(=NO)c1cc(S(=O)(=O)N(CC)CC)ccc1-2 | inconclusive: 17.8 µM [inhibitor, single point] | –
COc1ccc2nc(NC(=O)CSc3nccc(C)n3)sc2c1 | inconclusive: 17.8 µM [inhibitor, partial curve] | –
Cc1cccc(N2CCN(C3=NC(=O)/C(=C\c4cn[nH]c4-c4ccccc4)S3)CC2)c1 | inactive | –
O=C1NCC(c2ccccc2)C1C(=O)N/N=C\c1ccc(-c2ccc(Cl)c(Cl)c2)o1 (centres undefined) | inactive | –
Cc1cc(C)n(S(=O)(=O)c2ccc(C(C)(C)C)cc2)n1 | inconclusive: 15.8 µM [inhibitor, partial curve] | –
CC1(C)CC2CC(C)(CN2Cc2c(O)ccc3ccccc23)C1 (centres undefined) | inconclusive: 7.94 µM [activator, partial curve] | –
O=C(C[n+]1ccc(C(=O)NCc2ccccc2)cc1)c1ccc(OC(F)F)cc1 | inactive | –
Cc1ccc(C(=O)Nc2nc(COc3ccccc3)cs2)s1 | inconclusive: 35.5 µM [inhibitor, single point] | –
CCCn1c(=O)c(C(=O)NCc2ccccn2)c(O)c2ccccc21 | inconclusive: 20 µM [inhibitor, partial curve] | –
CC(C)(C)c1ccc(CNc2cc(N3CCOCC3)ccc2[N+](=O)[O-])cc1 | inconclusive: 11.2 µM [inhibitor, single point] | –
COc1cc2cccc(OC)c(=O)c2c(OC)c1OC | inactive | –
CCOC(=O)c1cc(C)[nH]c(=S)c1C#N | inactive | –
CCOC(=O)c1c(C)nc(C)c(C(=O)OCC)c1-c1ccc(O)c(OC)c1 | inactive | –
O=S(=O)(NC1CCN(Cc2ccccc2)CC1)c1ccc(Cl)cc1 | inconclusive: 5.62 µM [activator, single point] | –
CCOc1ccc(S(=O)(=O)n2cc(-c3ccc(F)cc3)c(N)n2)cc1 | inconclusive: 35.5 µM [inhibitor, single point] | –
Cc1c(NC(=O)CSc2nnc3c4ccccc4n(CCc4ccccc4)c3n2)c(=O)n(-c2ccccc2)n1C | inactive | –
CCOC(=O)c1c(-c2ccc(OC)cc2)csc1NC(=O)CCN1C(=O)c2ccccc2C1=O | inactive | –
COC1=C(c2ccccc2)C(=O)c2ccccc2C1=O | inconclusive: 25.1 µM [inhibitor, single point] | –
COc1ccc(CCN2C(=O)c3[nH]nc(-c4ccccc4O)c3C2c2cccc(Cl)c2)cc1 (centres undefined) | inconclusive: 11.2 µM [inhibitor, single point] | –

Structure (SMILES) | Potency | activity change, negative = inhibition
O=C(c1ccc2c(c1)OCO2)C1CCCN(C(=O)C2CCOCC2)C1 (centres undefined) | inconclusive: 0.562 µM [inhibitor, full curve, poor fit] | –
COCCCn1c(-c2cccs2)nc2nc3ccccc3nc21 | inconclusive: 3.16 µM [inhibitor, single point] | –
CCN(CC)S(=O)(=O)c1cccc2c(N(C)C)cccc12 | inconclusive: 25.1 µM [inhibitor, single point] | –
NC(=S)N/N=C\c1c2ccccc2cc2ccccc12 | inconclusive: 7.94 µM [inhibitor, partial curve, poor fit] | –
CCCCCCCn1c2c(c(=N)c3ccccc31)CCC2 | inconclusive: 2.24 µM [inhibitor, partial curve] | –
O=C(CCCN1C(=O)/C(=C/c2ccccc2)SC1=S)Nc1cccc(O)c1 | inconclusive: 35.5 µM [inhibitor, single point] | –
COc1ccc(C(=O)Nc2ccc(OCC(F)(F)C(F)F)c(C(F)(F)F)c2)cc1OC | inconclusive: 35.5 µM [inhibitor, single point] | –
CCOc1cc(C(=S)N2CCOCC2)ccc1OC(=O)/C=C/c1ccc(OC)c(OC)c1 | inactive | –
CCNCc1cc(OCC)c(OCC(=O)NCCc2ccccc2)cc1Cl | inconclusive: 35.5 µM [inhibitor, single point] | –
COC(=O)C1C2C=CC(C3CC23)C1C(=O)OCC(=O)c1ccccc1 (centres undefined) | inactive | –
COCCn1c(C)cc(C(=O)CSc2nc(C)cc(C)c2C#N)c1C | inconclusive: 25.1 µM [inhibitor, single point] | –
O=C(Nc1ccc(O)c(-c2nc3ccccc3o2)c1)C1(c2ccccc2)CCCC1 | inconclusive: 14.1 µM [inhibitor, single point] | –
COc1ccccc1OCC(=O)NNC(=S)NC(=O)c1ccco1 | inconclusive: 10 µM [inhibitor, partial curve] | –
CCCCn1c(=O)c(-[n+]2ccccc2)c([O-])c2ccccc21 | – | inactive: 8.48% [at 9.22 µM]
Cc1ccc(-c2nn(C)c(=O)c3ccccc23)cc1S(=O)(=O)N1CCOCC1 | inconclusive: 10 µM [activator, partial curve, poor fit] | –
O=c1c(-c2nnc(SCc3ccc(Cl)cc3Cl)o2)cccn1Cc1ccccc1 | inconclusive: 15.8 µM [inhibitor, single point] | –
CCCSc1nnc(Sc2nnnn2-c2ccccc2)s1 | active: 22.4 µM | –
Cc1nc2c(-c3ccccc3)c(C)[nH]n2c(=O)c1Cc1ccccc1 | inconclusive: 25.1 µM [inhibitor, single point] | –
CSC1=C(C#N)C2(CCCC2)C(C#N)=C(N)N1 | inactive | –
COc1ccc(CC(=O)Nc2cc(=O)n(C)c(=O)n2C)cc1OC | inconclusive: 3.55 µM [inhibitor, partial curve] | –
COc1ccc(C(=O)Nc2nc3c(s2)CCCC3)cc1S(=O)(=O)N1CCCc2ccccc21 | inconclusive: 2.51 µM [inhibitor, full curve, poor fit] | –
CCn1nc(C(=O)Nc2cccc(C(F)(F)F)c2)c(Cl)c1Cl | inactive | –

Sorted by count of non-hydrogen atoms (rising): some entries from above
Structure (SMILES) | Potency | activity change, negative = inhibition
CSC1=C(C#N)C2(CCCC2)C(C#N)=C(N)N1 | inactive | –
CCCCCCCn1c2c(c(=N)c3ccccc31)CCC2 | inconclusive: 2.24 µM [inhibitor, partial curve] | –
CCCCn1c(=O)c(-[n+]2ccccc2)c([O-])c2ccccc21 | – | inactive: 8.48% [at 9.22 µM]
COCCCn1c(-c2cccs2)nc2nc3ccccc3nc21 | inconclusive: 3.16 µM [inhibitor, single point] | –
COc1ccccc1OCC(=O)NNC(=S)NC(=O)c1ccco1 | inconclusive: 10 µM [inhibitor, partial curve] | –
Cc1nc2c(-c3ccccc3)c(C)[nH]n2c(=O)c1Cc1ccccc1 | inconclusive: 25.1 µM [inhibitor, single point] | –
CCNCc1cc(OCC)c(OCC(=O)NCCc2ccccc2)cc1Cl | inconclusive: 35.5 µM [inhibitor, single point] | –
Cc1ccc(-c2nn(C)c(=O)c3ccccc23)cc1S(=O)(=O)N1CCOCC1 | inconclusive: 10 µM [activator, partial curve, poor fit] | –
O=c1c(-c2nnc(SCc3ccc(Cl)cc3Cl)o2)cccn1Cc1ccccc1 | inconclusive: 15.8 µM [inhibitor, single point] | –
COc1ccc(C(=O)Nc2ccc(OCC(F)(F)C(F)F)c(C(F)(F)F)c2)cc1OC | inconclusive: 35.5 µM [inhibitor, single point] | –
CCOc1cc(C(=S)N2CCOCC2)ccc1OC(=O)/C=C/c1ccc(OC)c(OC)c1 | inactive | –
COc1ccc(C(=O)Nc2nc3c(s2)CCCC3)cc1S(=O)(=O)N1CCCc2ccccc21 | inconclusive: 2.51 µM [inhibitor, full curve, poor fit] | –

From PubChem BioAssay AID1688 (National Center for Advancing Translational Sciences (NCATS), 2009)
